Assay results from US12565520B2, “Chemically-stabilized allosteric modulators of leucine-rich repeat kinase 2 (LRRK2)” (UNIVERSITY OF GEORGIA RESEARCH FOUNDATION, INC., priority 2020, dated 2026).
Some results were stated once for a whole list of compounds, not compound by compound.

Amino acid sequences for entries named in this document (tags omitted). A change or cut given only in a name is not applied to a line headed by its entry.
UniProt Q5S007: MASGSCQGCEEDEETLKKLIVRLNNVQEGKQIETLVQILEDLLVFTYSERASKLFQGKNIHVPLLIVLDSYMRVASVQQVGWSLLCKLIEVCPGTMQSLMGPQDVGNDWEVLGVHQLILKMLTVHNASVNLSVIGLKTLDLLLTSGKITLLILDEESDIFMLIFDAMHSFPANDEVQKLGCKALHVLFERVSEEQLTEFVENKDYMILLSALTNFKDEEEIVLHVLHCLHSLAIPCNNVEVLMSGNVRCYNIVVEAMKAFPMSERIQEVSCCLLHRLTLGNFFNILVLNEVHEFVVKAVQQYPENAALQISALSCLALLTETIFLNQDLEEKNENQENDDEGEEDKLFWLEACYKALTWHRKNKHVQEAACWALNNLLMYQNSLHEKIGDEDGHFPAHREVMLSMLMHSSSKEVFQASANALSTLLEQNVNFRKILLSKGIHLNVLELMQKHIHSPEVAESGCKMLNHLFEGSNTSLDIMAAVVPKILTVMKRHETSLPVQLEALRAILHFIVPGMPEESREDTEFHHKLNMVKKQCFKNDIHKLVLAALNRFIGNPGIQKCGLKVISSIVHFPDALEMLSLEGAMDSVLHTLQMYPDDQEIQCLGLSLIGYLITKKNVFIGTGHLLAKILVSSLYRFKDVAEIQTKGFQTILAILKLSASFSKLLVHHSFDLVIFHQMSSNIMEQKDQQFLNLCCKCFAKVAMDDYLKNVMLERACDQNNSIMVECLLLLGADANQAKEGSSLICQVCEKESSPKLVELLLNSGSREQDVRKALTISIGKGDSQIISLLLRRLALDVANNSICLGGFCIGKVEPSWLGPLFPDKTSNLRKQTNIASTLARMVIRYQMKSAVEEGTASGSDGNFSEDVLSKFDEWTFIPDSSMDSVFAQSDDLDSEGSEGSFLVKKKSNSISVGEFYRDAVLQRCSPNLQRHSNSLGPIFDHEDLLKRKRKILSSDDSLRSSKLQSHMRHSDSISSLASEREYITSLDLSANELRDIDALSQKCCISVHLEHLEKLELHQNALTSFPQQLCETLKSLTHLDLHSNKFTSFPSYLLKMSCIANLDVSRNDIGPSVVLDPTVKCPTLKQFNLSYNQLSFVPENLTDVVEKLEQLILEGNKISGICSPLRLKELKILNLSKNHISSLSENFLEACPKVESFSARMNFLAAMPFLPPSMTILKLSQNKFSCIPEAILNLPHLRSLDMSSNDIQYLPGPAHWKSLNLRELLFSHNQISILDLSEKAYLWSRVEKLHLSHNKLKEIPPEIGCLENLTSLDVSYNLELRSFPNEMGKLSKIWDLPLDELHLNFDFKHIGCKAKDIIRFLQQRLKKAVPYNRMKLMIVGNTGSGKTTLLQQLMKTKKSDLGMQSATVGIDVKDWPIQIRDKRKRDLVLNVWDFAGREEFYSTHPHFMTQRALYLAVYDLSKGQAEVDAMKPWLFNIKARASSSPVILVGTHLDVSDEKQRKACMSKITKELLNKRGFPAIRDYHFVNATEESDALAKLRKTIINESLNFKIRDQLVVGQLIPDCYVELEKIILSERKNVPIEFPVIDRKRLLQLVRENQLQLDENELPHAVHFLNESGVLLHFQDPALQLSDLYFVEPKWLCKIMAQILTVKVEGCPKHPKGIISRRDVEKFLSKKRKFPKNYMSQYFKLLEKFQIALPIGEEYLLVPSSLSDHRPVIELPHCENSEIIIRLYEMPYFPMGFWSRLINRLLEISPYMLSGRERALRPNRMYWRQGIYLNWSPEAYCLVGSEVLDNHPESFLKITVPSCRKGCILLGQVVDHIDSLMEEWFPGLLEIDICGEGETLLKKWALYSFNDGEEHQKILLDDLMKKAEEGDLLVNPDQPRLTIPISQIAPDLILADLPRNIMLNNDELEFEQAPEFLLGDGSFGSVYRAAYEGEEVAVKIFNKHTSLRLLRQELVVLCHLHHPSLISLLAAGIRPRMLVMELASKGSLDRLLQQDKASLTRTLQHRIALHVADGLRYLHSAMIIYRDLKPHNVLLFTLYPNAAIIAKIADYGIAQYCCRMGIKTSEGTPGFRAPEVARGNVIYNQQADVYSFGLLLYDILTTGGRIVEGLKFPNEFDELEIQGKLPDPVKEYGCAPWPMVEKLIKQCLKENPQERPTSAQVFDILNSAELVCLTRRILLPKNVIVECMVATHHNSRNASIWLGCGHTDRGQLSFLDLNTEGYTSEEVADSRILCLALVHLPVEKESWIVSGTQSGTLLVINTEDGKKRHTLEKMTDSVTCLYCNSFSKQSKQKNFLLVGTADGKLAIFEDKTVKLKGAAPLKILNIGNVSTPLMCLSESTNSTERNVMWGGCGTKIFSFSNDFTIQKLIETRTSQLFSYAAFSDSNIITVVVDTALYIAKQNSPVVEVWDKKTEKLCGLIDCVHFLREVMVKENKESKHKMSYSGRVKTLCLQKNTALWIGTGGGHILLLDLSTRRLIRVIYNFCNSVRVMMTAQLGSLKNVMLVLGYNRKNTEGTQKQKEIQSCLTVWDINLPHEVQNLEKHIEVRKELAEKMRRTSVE

Target: T1, LRRK2 (Homo sapiens, UniProt Q5S007)
T1 construct: co-transfecting HEK293 cells with GFP-tagged and strep-tagged full-length LRRK2; expressed in transfected cells; host or cells: HEK293
Experiment: LRRK2 pS1292 autophosphorylation immunoblot
Assay type: cell-based
Conditions: HEK293 cells with GFP-tagged LRRK2, 10 μM peptide, 12 hours

Substance	reduction of LRRK2 autophosphorylation (pS1292) vs DMSO control
COR-domain stapled peptide formed from SEQ ID NO. 16 KGEGEXLLKXWK, X = (S)-2-(4′-pentenyl)alanine; PEG3 linker, FAM or biotin label [LCIP1]	50-70%
Roc-domain stapled peptide formed from SEQ ID NO. 6 DEKQRKAC(Nle)SKITKEXLNKX, X = (S)-2-(4′-pentenyl)alanine; PEG3 linker, FAM or biotin label [LRIP4]	50-70%
